# Measured values taken from the supplement of paper PMC8728848.
# This is one part of the list.
# Assays:
# Test in all cases: glycan array binding signal (z-score within array); higher = stronger binding
# Settings in all cases: glycan notation: IUPAC condensed, linker removed
# [1] = target: Gal(b1-4)GlcNAc(b1-3)Gal(b1-4)GlcNAc(b1-3)Gal(b1-4)GlcNAc(b1-3)Gal(b1-4)GlcNAc(b1-2)Man(a1-3)[Gal(b1-4)GlcNAc(b1-3)Gal(b1-4)GlcNAc(b1-3)Gal(b1-4)GlcNAc(b1-3)Gal(b1-4)GlcNAc(b1-2)Man(a1-6)]Man(b1-4)GlcNAc(b1-4)[Fuc(a1-6)]GlcNAc
# In short: (§1)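 Glycan array data came from 3228 arrays in the Consortium for Functional Glycomics database, and only arrays with an available protein sequence were kept. Glycan names were put into IUPAC-condensed notation, and columns mapping to the same glycan were averaged. The binding signal is a within-array Z-score, averaged across arrays of one protein sequence run at different concentrations or buffers and across linkers. A negative Z-score can be read as non-binding.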
# [2] = target: Gal(b1-4)GlcNAc(b1-3)Gal(b1-4)GlcNAc(b1-3)Gal(b1-4)GlcNAc(b1-3)Gal(b1-4)GlcNAc(b1-2)[Gal(b1-4)GlcNAc(b1-3)Gal(b1-4)GlcNAc(b1-3)Gal(b1-4)GlcNAc(b1-3)Gal(b1-4)GlcNAc(b1-6)]Man(a1-6)[Gal(b1-4)GlcNAc(b1-3)Gal(b1-4)GlcNAc(b1-3)Gal(b1-4)GlcNAc(b1-3)Gal(b1-4)GlcNAc(b1-2)Man(a1-3)]Man(b1-4)GlcNAc(b1-4)[Fuc(a1-6)]GlcNAc
# In short: as §1
# [3] = target: Gal(b1-4)GlcNAc(b1-3)Gal(b1-4)GlcNAc(b1-3)Gal(b1-4)GlcNAc(b1-3)Gal(b1-4)GlcNAc(b1-3)Gal(b1-4)GlcNAc(b1-2)Man(a1-3)[Gal(b1-4)GlcNAc(b1-3)Gal(b1-4)GlcNAc(b1-3)Gal(b1-4)GlcNAc(b1-3)Gal(b1-4)GlcNAc(b1-3)Gal(b1-4)GlcNAc(b1-2)Man(a1-6)]Man(b1-4)GlcNAc(b1-4)GlcNAc
# In short: as §1
# [4] = target: Gal(b1-4)GlcNAc(b1-3)Gal(b1-4)GlcNAc(b1-3)Gal(b1-4)GlcNAc(b1-3)Gal(b1-4)GlcNAc(b1-3)Gal(b1-4)GlcNAc(b1-2)Man(a1-3)[Gal(b1-4)GlcNAc(b1-3)Gal(b1-4)GlcNAc(b1-3)Gal(b1-4)GlcNAc(b1-3)Gal(b1-4)GlcNAc(b1-3)Gal(b1-4)GlcNAc(b1-2)Man(a1-6)]Man(b1-4)GlcNAc(b1-4)[Fuc(a1-6)]GlcNAc
# In short: as §1
# [5] = target: Gal(b1-4)GlcNAc(b1-3)Gal(b1-4)GlcNAc(b1-3)Gal(b1-4)GlcNAc(b1-3)Gal(b1-4)GlcNAc(b1-3)Gal(b1-4)GlcNAc(b1-2)[Gal(b1-4)GlcNAc(b1-3)Gal(b1-4)GlcNAc(b1-3)Gal(b1-4)GlcNAc(b1-3)Gal(b1-4)GlcNAc(b1-3)Gal(b1-4)GlcNAc(b1-6)]Man(a1-6)[Gal(b1-4)GlcNAc(b1-3)Gal(b1-4)GlcNAc(b1-3)Gal(b1-4)GlcNAc(b1-3)Gal(b1-4)GlcNAc(b1-3)Gal(b1-4)GlcNAc(b1-2)Man(a1-3)]Man(b1-4)GlcNAc(b1-4)[Fuc(a1-6)]GlcNAc
# In short: as §1
# [6] = target: Gal(b1-4)GlcNAc(b1-3)Gal(b1-4)GlcNAc(b1-3)Gal(b1-4)GlcNAc(b1-3)Gal(b1-4)GlcNAc(b1-3)Gal(b1-4)GlcNAc(b1-3)Gal(b1-4)GlcNAc(b1-2)Man(a1-3)[Gal(b1-4)GlcNAc(b1-3)Gal(b1-4)GlcNAc(b1-3)Gal(b1-4)GlcNAc(b1-3)Gal(b1-4)GlcNAc(b1-3)Gal(b1-4)GlcNAc(b1-3)Gal(b1-4)GlcNAc(b1-2)Man(a1-6)]Man(b1-4)GlcNAc(b1-4)GlcNAc
# In short: as §1
# [7] = target: Gal(b1-4)GlcNAc(b1-3)Gal(b1-4)GlcNAc(b1-3)GalNAc
# In short: as §1
# [8] = target: Gal(b1-4)GlcNAc(b1-3)Gal(b1-4)GlcNAc(b1-3)[Gal(b1-4)GlcNAc(b1-3)Gal(b1-4)GlcNAc(b1-6)]GalNAc
# In short: as §1
# [9] = target: Gal(b1-4)GlcNAc(b1-3)Gal(b1-4)GlcNAc(b1-6)[Gal(b1-3)]GalNAc
# In short: as §1
# [10] = target: Gal(b1-4)GlcNAc(b1-3)Gal(b1-4)[Fuc(a1-3)]GlcNAc(b1-3)Gal(b1-4)[Fuc(a1-3)]GlcNAc
# In short: as §1
# [11] = target: Gal(b1-4)GlcNAc(b1-3)GalNAc
# In short: as §1
# [12] = target: Gal(b1-4)GlcNAc(b1-3)[Fuc(a1-3)GlcNAc(b1-6)]Gal(b1-4)Glc
# In short: as §1
# [13] = target: Gal(b1-4)GlcNAc(b1-3)[Gal(b1-4)GlcNAc(b1-6)]Gal(b1-4)GlcNAc
# In short: as §1
# [14] = target: Gal(b1-4)GlcNAc(b1-3)[GlcNAc(b1-6)]Gal(b1-4)GlcNAc
# In short: as §1
# [15] = target: Gal(b1-4)GlcNAc(b1-6)Gal(b1-4)GlcNAc
# In short: as §1
# [16] = target: Gal(b1-4)GlcNAc(b1-6)GalNAc
# In short: as §1
# [17] = target: Gal(b1-4)GlcNAc(b1-6)[Gal(b1-3)]GalNAc
# In short: as §1
# [18] = target: Gal(b1-4)GlcNAc(b1-6)[Gal(b1-4)GlcNAc(b1-3)]GalNAc
# In short: as §1
# [19] = target: Gal(b1-4)GlcNAc6P
# In short: as §1
# [20] = target: Gal(b1-6)Gal
# In short: as §1
# [21] = target: Gal3S(b1-3)GalNAc
# In short: as §1
# [22] = target: Gal3S(b1-3)GlcNAc
# In short: as §1
# [23] = target: Gal3S(b1-3)[Fuc(a1-4)]GlcNAc
# In short: as §1
binder,measurement,setting,value
CM2 (Cordyceps militaris) (protein) MEIAEQNVGKSCAIVNLIPPKEGSNIWTAKQVTIARNLPPNRGTGRHQIDWSFGPVKVTGYVDTTNWEIGVTVSIMGIDLGTVYGNLRDGVVLNVDLFLAKGQVRFYLKNGNEVWVHLSVEIRFDGKFEGDYKIITV,glycan array binding signal (z-score),[1],0.547
same,glycan array binding signal (z-score),[2],1.2
same,glycan array binding signal (z-score),[3],-0.651
same,glycan array binding signal (z-score),[4],-0.351
same,glycan array binding signal (z-score),[5],0.956
same,glycan array binding signal (z-score),[6],2.17
same,glycan array binding signal (z-score),[7],0.341
same,glycan array binding signal (z-score),[8],1.83
same,glycan array binding signal (z-score),[9],0.495
same,glycan array binding signal (z-score),[10],-0.058
same,glycan array binding signal (z-score),[11],0.521
same,glycan array binding signal (z-score),[12],1.42
same,glycan array binding signal (z-score),[13],-0.588
same,glycan array binding signal (z-score),[14],-0.393
same,glycan array binding signal (z-score),[15],-0.344
same,glycan array binding signal (z-score),[16],-0.05
same,glycan array binding signal (z-score),[17],-0.754
same,glycan array binding signal (z-score),[18],0.018
same,glycan array binding signal (z-score),[19],-0.759
same,glycan array binding signal (z-score),[20],-2.15
same,glycan array binding signal (z-score),[21],1.81
same,glycan array binding signal (z-score),[22],0.015
same,glycan array binding signal (z-score),[23],-0.383

# Reformatted with tabs: entries from further up
binder	measurement	setting	value
CM2 (Cordyceps militaris) (protein) MEIAEQNVGKSCAIVNLIPPKEGSNIWTAKQVTIARNLPPNRGTGRHQIDWSFGPVKVTGYVDTTNWEIGVTVSIMGIDLGTVYGNLRDGVVLNVDLFLAKGQVRFYLKNGNEVWVHLSVEIRFDGKFEGDYKIITV	glycan array binding signal (z-score)	[17]	-0.754
same	glycan array binding signal (z-score)	[18]	0.018
